From patent US20100048682A1, “INHIBITING DNA POLYMERASE BETA TO ENHANCE EFFICACY OF ANTICANCER AGENTS” (UNIVERSITY OF PITTSBURGH - OF THE COMMONWEALTH SYSTEM OF …, priority 2005, published 2010)
At least one compound was matched to its structure with a doubt left.

System: pol-β null cells (88TAg)
Test: Growth inhibition assay (modified MTT, MTS)
Assay type: cell-based, mouse
Conditions: MTS viability 48 hr after 1-2 hr exposure
Procedure: Culture Conditions and Cell Cytotoxicity Assays. Transformed MEFs were cultured at 37° C. in a humidified incubator with 10% CO2 in DMEM supplemented with 10% fetal bovine serum, penicillin (50 units/ml), streptomycin (50 μg/ml) and Glutamax (4 mM). Human embryonic kidney cells (293T) were cultured similarly in DMEM supplemented with 10% fetal bovine serum, penicillin (50 units/ml), streptomycin (50 μg/ml) and Glutamine (4 mM). TMZ, MMS and MMC induced cytotoxicity was determined by growth inhibition assays. Briefly, cells were seeded in 96-well dishes at 1250 cells/well. After 24 hours, cells (quadruplicate wells) were exposed to serial dilutions of damaging agent in growth media for 1-2 hours (or as indicated in the text) at 37° C. Drug-containing medium was replaced with fresh medium and the plates were incubated at 37° C. for 48 hours at which point the total cell number was determined by a modified MTT assay (MTS; Promega). Metabolically active cells were quantified by the bioreduction of the MTS tetrazolium compound by recording absorbance at 490 nm using a microplate reader. Results were calculated from the average of four separate experiments and are reported as the % of treated cells relative to the cells in control wells (% Control).

Cn1nnc2c(C(N)=O)ncn2c1=O [TMZ, temozolomide]
sensitivity of pol-β null cells relative to Wt and other null cells: significantly more sensitive
